Data: the supplement of paper PMC12819154, “High-throughput peptide-centric local stability assay extends protein–ligand identification to membrane proteins, tissues and bacteria” (Nature Structural & Molecular Biology, 2025)
The other results are listed elsewhere or left out. Small differences around the control level are noise.

Protein sequences, listed by entry. Tags and fused reporters are not part of them. Lines headed by an entry give the natural chain unless they say otherwise; changes in a name come on top.
UniProt P78371: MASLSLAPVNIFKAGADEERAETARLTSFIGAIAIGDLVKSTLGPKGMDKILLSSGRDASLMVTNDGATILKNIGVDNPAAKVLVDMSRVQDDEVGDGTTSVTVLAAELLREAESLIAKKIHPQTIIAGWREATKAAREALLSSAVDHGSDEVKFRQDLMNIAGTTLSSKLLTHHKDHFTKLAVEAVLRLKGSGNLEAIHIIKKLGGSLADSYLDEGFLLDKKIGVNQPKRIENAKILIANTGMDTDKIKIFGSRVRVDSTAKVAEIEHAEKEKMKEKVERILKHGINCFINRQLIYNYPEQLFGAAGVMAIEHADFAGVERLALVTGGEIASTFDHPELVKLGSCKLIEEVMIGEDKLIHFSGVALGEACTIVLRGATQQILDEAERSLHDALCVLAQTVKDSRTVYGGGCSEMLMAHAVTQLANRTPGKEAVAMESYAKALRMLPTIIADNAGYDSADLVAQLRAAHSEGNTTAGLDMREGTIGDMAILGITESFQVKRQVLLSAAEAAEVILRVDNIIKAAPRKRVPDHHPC
UniProt P61758, whole entry: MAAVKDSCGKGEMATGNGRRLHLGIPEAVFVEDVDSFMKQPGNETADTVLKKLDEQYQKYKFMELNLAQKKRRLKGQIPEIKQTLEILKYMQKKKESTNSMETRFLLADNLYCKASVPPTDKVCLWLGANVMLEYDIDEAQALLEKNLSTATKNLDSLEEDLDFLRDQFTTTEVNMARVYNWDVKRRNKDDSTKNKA
UniProt P62324: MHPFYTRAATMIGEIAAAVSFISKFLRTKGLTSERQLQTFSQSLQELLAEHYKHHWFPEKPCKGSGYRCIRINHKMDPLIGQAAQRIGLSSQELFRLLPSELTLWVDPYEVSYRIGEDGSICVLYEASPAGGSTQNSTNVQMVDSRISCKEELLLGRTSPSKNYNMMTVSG
UniProt P59780: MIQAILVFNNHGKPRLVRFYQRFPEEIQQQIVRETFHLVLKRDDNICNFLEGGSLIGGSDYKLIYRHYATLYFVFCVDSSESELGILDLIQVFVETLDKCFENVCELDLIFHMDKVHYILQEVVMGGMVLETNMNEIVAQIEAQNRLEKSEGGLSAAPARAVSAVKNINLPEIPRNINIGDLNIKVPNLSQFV
UniProt P59190: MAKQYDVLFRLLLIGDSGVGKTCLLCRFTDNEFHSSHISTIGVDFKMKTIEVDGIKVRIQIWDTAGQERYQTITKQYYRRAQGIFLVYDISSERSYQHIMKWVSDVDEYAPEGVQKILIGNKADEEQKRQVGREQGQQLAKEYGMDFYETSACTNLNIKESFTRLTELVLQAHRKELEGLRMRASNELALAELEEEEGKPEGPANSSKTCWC
UniProt P67936, whole entry: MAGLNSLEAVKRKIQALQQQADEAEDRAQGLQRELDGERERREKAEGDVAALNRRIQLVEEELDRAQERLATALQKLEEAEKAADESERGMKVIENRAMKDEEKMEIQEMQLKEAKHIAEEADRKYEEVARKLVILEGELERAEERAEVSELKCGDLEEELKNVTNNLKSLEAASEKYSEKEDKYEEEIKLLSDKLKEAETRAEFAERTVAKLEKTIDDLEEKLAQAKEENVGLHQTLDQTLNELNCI
UniProt P82979: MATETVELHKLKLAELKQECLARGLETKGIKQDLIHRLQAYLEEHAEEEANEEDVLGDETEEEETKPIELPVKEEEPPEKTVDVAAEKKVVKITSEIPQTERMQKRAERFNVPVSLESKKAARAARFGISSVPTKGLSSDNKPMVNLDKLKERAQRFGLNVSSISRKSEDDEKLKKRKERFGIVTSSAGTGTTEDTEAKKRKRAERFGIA
UniProt P81274: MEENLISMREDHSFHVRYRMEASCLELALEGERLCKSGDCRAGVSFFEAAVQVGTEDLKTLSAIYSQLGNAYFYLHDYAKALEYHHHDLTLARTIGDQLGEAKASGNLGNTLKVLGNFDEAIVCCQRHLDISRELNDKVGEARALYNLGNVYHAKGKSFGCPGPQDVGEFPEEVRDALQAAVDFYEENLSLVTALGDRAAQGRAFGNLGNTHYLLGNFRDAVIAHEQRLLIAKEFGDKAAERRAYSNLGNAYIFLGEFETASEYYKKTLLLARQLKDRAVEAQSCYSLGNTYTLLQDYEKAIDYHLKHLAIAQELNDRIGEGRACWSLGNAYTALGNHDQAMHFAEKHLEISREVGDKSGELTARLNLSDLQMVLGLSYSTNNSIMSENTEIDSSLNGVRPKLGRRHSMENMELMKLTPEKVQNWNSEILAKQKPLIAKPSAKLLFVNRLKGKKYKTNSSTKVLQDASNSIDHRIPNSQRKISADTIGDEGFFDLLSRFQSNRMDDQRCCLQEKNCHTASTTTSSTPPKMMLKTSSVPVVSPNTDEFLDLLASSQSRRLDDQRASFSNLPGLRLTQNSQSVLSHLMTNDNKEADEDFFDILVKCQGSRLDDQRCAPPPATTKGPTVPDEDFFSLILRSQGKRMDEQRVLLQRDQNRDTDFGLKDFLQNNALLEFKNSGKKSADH
UniProt P63146, whole entry: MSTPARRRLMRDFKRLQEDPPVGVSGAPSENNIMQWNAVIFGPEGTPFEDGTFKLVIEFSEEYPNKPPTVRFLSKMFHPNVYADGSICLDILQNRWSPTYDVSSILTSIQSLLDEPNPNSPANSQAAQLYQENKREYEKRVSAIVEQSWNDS
UniProt P78395, whole entry: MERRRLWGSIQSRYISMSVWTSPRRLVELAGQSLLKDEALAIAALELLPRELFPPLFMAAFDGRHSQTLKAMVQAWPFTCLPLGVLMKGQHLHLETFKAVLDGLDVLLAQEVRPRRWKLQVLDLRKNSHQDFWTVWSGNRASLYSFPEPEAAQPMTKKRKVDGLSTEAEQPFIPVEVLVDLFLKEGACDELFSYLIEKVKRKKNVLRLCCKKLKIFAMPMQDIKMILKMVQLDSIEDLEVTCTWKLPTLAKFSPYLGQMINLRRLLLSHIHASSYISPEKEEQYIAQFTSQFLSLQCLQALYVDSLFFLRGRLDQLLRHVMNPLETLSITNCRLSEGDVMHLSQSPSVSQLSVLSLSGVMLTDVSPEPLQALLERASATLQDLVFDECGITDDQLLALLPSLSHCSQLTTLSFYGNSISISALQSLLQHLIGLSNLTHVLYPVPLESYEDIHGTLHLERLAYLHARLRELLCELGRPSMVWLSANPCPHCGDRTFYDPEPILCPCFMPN
UniProt P57768: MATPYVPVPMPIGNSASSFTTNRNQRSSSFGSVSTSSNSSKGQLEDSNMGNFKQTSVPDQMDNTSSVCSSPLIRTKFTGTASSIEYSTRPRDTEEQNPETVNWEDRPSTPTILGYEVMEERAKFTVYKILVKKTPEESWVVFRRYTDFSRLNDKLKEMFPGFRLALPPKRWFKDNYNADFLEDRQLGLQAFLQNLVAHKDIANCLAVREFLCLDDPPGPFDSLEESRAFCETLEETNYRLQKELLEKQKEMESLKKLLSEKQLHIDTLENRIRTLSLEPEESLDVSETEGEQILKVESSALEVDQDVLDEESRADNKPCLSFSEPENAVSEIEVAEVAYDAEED
UniProt P55011: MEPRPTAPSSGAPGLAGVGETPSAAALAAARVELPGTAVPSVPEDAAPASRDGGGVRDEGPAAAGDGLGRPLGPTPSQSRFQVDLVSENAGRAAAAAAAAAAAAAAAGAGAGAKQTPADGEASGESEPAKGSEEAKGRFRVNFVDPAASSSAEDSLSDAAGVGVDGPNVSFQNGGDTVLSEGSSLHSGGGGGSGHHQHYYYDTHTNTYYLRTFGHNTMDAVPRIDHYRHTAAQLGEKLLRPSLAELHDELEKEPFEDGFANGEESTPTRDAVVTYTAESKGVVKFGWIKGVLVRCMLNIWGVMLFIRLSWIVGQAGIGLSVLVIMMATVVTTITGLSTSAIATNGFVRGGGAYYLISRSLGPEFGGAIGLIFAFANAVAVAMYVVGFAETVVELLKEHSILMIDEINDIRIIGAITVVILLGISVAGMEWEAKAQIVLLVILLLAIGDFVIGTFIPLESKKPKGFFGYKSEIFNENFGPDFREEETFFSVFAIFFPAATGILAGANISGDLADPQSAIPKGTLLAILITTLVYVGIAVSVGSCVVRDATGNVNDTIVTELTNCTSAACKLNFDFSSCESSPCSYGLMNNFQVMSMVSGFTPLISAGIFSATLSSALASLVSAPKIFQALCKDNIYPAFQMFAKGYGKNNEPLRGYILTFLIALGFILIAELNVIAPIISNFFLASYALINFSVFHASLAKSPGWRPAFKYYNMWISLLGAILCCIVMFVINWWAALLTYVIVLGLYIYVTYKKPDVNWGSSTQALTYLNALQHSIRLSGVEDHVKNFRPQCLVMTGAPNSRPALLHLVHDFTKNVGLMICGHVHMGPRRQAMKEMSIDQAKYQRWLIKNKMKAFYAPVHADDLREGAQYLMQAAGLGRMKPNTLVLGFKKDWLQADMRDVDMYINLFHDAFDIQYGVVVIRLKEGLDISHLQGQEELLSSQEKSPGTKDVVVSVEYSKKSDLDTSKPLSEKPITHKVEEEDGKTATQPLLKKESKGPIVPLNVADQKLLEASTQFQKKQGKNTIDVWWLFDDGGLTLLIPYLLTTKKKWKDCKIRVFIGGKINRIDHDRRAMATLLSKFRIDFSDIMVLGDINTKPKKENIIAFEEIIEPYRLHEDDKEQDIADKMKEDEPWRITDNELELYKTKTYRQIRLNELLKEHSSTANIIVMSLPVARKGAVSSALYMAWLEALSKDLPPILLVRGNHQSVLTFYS
UniProt P62310: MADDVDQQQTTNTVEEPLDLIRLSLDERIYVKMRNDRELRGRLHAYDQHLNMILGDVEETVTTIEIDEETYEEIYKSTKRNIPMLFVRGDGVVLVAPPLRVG
UniProt P61981: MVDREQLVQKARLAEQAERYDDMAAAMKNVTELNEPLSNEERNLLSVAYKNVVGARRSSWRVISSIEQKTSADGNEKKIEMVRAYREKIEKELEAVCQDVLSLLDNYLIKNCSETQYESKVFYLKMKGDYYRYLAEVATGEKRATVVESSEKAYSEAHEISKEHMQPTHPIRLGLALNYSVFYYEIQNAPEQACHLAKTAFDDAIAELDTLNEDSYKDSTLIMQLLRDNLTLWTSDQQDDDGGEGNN
UniProt P60604: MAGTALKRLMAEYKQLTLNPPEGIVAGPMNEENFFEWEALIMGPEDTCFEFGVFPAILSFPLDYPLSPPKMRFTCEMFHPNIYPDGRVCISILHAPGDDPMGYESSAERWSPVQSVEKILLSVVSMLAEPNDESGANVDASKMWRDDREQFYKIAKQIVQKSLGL
UniProt P55211: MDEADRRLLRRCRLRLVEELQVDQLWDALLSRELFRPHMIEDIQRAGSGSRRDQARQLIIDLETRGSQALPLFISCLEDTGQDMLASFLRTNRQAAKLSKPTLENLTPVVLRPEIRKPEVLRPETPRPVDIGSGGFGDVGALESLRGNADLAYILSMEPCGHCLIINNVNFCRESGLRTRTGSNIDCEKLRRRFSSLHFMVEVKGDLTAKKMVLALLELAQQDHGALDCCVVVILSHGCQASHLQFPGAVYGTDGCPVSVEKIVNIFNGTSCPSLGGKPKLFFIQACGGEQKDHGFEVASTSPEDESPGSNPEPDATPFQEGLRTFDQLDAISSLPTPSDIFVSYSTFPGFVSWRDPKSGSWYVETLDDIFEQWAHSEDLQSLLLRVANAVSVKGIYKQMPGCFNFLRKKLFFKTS
UniProt P78549: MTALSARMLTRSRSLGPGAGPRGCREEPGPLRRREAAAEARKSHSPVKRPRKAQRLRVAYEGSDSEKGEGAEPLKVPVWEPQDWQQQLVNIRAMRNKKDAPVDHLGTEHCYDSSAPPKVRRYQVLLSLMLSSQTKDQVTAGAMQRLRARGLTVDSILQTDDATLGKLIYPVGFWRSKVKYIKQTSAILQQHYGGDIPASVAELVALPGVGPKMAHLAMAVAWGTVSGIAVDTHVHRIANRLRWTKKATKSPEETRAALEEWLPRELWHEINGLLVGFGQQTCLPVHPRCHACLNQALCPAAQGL
UniProt P62937, whole entry, looked up: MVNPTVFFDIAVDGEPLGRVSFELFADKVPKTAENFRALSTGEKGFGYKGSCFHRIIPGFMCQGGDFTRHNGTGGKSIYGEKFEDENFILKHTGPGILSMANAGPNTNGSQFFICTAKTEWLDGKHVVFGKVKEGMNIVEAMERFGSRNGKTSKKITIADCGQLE
UniProt P61421, whole entry: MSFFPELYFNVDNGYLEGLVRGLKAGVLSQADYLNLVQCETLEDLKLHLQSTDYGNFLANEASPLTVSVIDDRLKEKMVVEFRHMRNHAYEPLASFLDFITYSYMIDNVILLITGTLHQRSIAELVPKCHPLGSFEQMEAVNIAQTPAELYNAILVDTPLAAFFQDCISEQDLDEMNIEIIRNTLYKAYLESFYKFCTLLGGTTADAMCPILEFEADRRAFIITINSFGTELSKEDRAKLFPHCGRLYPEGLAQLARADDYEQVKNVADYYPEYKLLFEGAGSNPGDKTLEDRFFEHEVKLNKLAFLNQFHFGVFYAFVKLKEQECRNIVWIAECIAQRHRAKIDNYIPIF

Compound: CN[C@@H]1C[C@H]2O[C@@](C)([C@@H]1OC)n1c3ccccc3c3c4c(c5c6ccccc6n2c5c31)C(=O)NC4 [staurosporine]
Assay: log2 fold change of tryptic peptide abundance, ligand vs vehicle (limited proteolysis) (log2 ratio); higher = more trypsin-susceptible (destabilized)
Details: ligand concentration: 20 uM; sample: K562 cleared lysate; digestion: 4 min, 22 C (HT-PELSA RT4min, Orbitrap Astral)

Target	log2 fold change
RPL7A (peptide sequence: GDVPTKRPPVLR, peptide start residue: 126) (UniProt P62424)	0.148
CCT2 (peptide sequence: TPGKEAVAMESYAK, peptide start residue: 428) (UniProt P78371)	-0.492
UniProt P83731 (peptide sequence: TDGKVFQFLNAKCESAFLSK, peptide start residue: 24)	0.481
VBP1 (peptide sequence: YKFMELNLAQKK, peptide start residue: 60) (UniProt P61758)	0.444
BTG1 (peptide sequence: ISCKEELLLGR, peptide start residue: 147) (UniProt P62324)	-0.088
UniProt P59780 (peptide sequence: NINLPEIPR, peptide start residue: 167)	-0.125
UniProt P59190 (peptide sequence: LLLIGDSGVGK, peptide start residue: 11)	0.0403
TPM4 (peptide sequence: AEGDVAALNRR, peptide start residue: 45) (UniProt P67936)	0.264
SARNP (peptide sequence: KSEDDEKLK, peptide start residue: 167) (UniProt P82979)	0.222
CTBP2 (peptide sequence: DCTVEMPILK, peptide start residue: 37) (UniProt P56545)	-0.358
GPSM2 (peptide sequence: DAVIAHEQR, peptide start residue: 220) (UniProt P81274)	0.321
UniProt P62987 (peptide sequence: YNCDKMICR, peptide start residue: 89)	0.17
UniProt P63146 (peptide sequence: VSAIVEQSWNDS, peptide start residue: 141)	-0.25
PRAME (peptide sequence: FSPYLGQMINLRR, peptide start residue: 252) (UniProt P78395)	0.328
SNX16 (peptide sequence: TKFTGTASSIEYSTRPR, peptide start residue: 75) (UniProt P57768)	-0.282
SLC12A2 (peptide sequence: AAAAAAAAAAAAAAAGAGAGAK, peptide start residue: 93) (UniProt P55011)	0.196
UniProt P62310 (peptide sequence: GDGVVLVAPPLR, peptide start residue: 89)	0.0964
UniProt P61254 (peptide sequence: KYVIYIER, peptide start residue: 77)	-0.174
P62892 (peptide sequence: SSHKTFR, peptide start residue: 2) (UniProt P62891)	0.326
UniProt P61981 (peptide sequence: EHMQPTHPIR, peptide start residue: 163)	0.473
UniProt P60604 (peptide sequence: FTCEMFHPNIYPDGR, peptide start residue: 73)	0.0724
CASP9 (peptide sequence: TGSNIDCEK, peptide start residue: 181) (UniProt P55211)	0.301
NTHL1 (peptide sequence: LIYPVGFWR, peptide start residue: 175) (UniProt P78549)	0.0912
POLE2 (peptide sequence: IINAVEKQPLSSNMIER, peptide start residue: 48) (UniProt P56282)	0.169
PPIA (peptide sequence: IIPGFMCQGGDFTRHNGTGGK, peptide start residue: 56) (UniProt P62937)	1.15
ATP6V0D1 (peptide sequence: LLFEGAGSNPGDKTLEDR, peptide start residue: 276) (UniProt P61421)	0.283

In another format: results already given

| Target | log2 fold change |
| --- | --- |
| GPSM2 (peptide sequence: DAVIAHEQR, peptide start residue: 220) (UniProt P81274) | 0.321 |
| UniProt P62987 (peptide sequence: YNCDKMICR, peptide start residue: 89) | 0.17 |
| UniProt P63146 (peptide sequence: VSAIVEQSWNDS, peptide start residue: 141) | -0.25 |
| PRAME (peptide sequence: FSPYLGQMINLRR, peptide start residue: 252) (UniProt P78395) | 0.328 |
| SNX16 (peptide sequence: TKFTGTASSIEYSTRPR, peptide start residue: 75) (UniProt P57768) | -0.282 |
